Where “and” joins values, the source holds several entries; their conditions need not be identical. Equal values may be shown once. The campaign covered roughly 580,000 compounds. About 6,100 (1.1%) were called active. This list was built around the results that the source calls inconclusive (neither active nor inactive); the mix of calls is not that of the screen. The call rests on the fitted dose curve; in most records, active means well fitted inhibition curve with a large enough effect; inconclusive means small, poorly fitted or top-dose-only effect, or another doubt; inactive means no such curve, though single readings can be large or run the other way. Potencies beside an inconclusive call are fits to weak or partial responses and may not hold up.
molecular target: Polyunsaturated fatty acid lipoxygenase ALOX12 (Homo sapiens) (UniProt P18054); experiment: Primary qHTS assay for inhibitors of human arachidonate 12S-lipoxygenase (ALOX12): Round 2; settings: purified 12hLO, xylenol orange hydroperoxide absorbance; activity change, negative = inhibition: at 108 µM (top of the series) unless noted
How it was run: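 Purified human 12hLO (150 nM final) in 25 mM Hepes, 0.01% Triton X-100, pH 7.0 was preincubated 15 min at room temperature with compound. Then 40 uM arachidonic acid was added, 30 min. Hydroperoxide was read by Fe-XO absorbance ratio 573/405 nm.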
On the % scale 0 is the no-effect control and ±100 the full control effect; potency means the concentration at half of the fitted maximal effect.

Amino acid sequences for entries named in this document (tags omitted). A change or cut given only in a name is not applied to a line headed by its entry.
UniProt P18054: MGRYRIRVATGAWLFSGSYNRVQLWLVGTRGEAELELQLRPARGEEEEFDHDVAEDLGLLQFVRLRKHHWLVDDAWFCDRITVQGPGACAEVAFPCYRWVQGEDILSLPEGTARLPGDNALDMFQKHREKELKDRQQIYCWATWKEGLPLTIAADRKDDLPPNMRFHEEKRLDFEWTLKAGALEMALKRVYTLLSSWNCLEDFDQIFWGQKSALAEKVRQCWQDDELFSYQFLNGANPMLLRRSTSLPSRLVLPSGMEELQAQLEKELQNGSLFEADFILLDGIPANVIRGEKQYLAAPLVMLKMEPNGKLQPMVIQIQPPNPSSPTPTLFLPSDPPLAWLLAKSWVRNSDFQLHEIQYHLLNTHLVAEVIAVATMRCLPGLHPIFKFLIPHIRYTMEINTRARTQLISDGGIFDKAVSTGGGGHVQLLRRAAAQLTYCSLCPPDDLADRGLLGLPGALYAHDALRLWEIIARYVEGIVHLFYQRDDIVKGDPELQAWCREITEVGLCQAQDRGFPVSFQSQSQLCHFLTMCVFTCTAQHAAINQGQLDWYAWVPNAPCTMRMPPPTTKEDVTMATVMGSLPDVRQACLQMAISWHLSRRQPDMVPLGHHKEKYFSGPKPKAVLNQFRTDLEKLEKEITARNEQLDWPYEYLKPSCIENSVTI

With `CC(C)c1ccc(CN2CC[C@@H]3OCC(=O)N(Cc4ccccc4)[C@H]3CC2)cc1` as the compound, how does the Potency read?
The Potency was inconclusive: 50.1 µM [inhibitor, partial curve].

`Cc1cccc(NC(=O)C2CCN(S(=O)(=O)c3c(C)noc3/C=C/c3ccco3)CC2)c1C` was tested. Which Potency did it give?
Its Potency is “inactive”.

`CN(C)CCN1C(=O)C(=O)/C(=C(/O)c2ccccc2)C1c1ccccc1F` (stereo not given) was tested. Which Potency did it give?
The Potency was inconclusive: 44.7 µM [inhibitor, partial curve, poor fit].

With `Cc1ccc(/C(O)=C2\C(=O)C(=O)N(c3cc(C)on3)C2c2cccc(Cl)c2)cc1` (stereo not given) as the compound, how does the Potency read?
Its Potency is inconclusive: 3.16 µM [inhibitor, full curve, poor fit].

With `COC(=O)C1=C(C)N(Cc2ccc(C(F)(F)F)cc2)C(=NCc2ccc(C(F)(F)F)cc2)NC1c1ccc(F)cc1` (stereo not given) as the compound, how does the Potency read?
The Potency was inconclusive: 44.7 µM [inhibitor, partial curve, poor fit].

Which Potency does the source give for `Cc1ccc(S(=O)(=O)Nc2ccc(N(C)C)c(C(=O)O)c2)cc1` here?
The Potency was inconclusive: 31.6 µM [inhibitor, partial curve, poor fit].

With `CCc1ccccc1NC(=O)CN1CCC(NC(=O)COC)CC1` as the compound, how does the Potency read?
Its Potency is inconclusive: 50.1 µM [inhibitor, full curve, poor fit].

For `CCCCC(=O)Nc1cccc(NC(=S)NC(C)=O)c1`, which Potency is on record?
Its Potency is “inactive”.

`O=S(=O)(NCC1CCCO1)c1ccc(S(=O)(=O)N(Cc2ccc(F)cc2)Cc2ccccn2)cc1` (stereo not given) was tested. Which Potency did it give?
Its Potency is “inactive”.

`O=C(O)c1ccccc1NC(=O)c1ccccc1-c1ccccc1C(=O)O` was tested. Which Potency did it give?
Its Potency is inconclusive: 35.5 µM [inhibitor, partial curve, poor fit].

With `CC(CC(=O)NCC1(N(C)C)CCCCCC1)NC(=O)c1ccccc1` (stereo not given) as the compound, how does the Potency read?
Its Potency is “inactive”.

`O=C(NCC1CN(C(=O)Cc2ccc(Oc3ccccc3)cc2)CC12CN(c1ccccc1)C2)c1cccnc1` (stereo not given) was tested. Which activity change, negative = inhibition did it give?
Its activity change, negative = inhibition is inconclusive: -30% [inhibitor].

How did the Potency turn out when `CCOC(=O)C(C)Sc1ncnc2c1nnn2-c1ccc(F)cc1` (stereo not given) was run?
Its Potency is “inactive”.

With `Cc1cc(NC(=O)CSc2nc3c(c(=O)n2C)SCC3)no1` as the compound, how does the Potency read?
Its Potency is inconclusive: 112 µM [inhibitor, single point].

How did the Potency turn out when `Cc1cccc(NC(=S)NCc2ccc3c(c2)cc(C)n3C)c1C` was run?
The Potency was active: 35.5 µM.

Which Potency does the source give for `N#Cc1c(NC(=O)c2cccnc2)sc2c1CCC2` here?
The Potency was inconclusive: 2.24 µM [inhibitor, full curve, poor fit].

For `Cc1ccc(-c2noc([C@@H]3C[C@H](NS(=O)(=O)c4ccc(F)cc4)CN3C)n2)cc1`, which Potency is on record?
The Potency was “inactive”.

Which Potency does the source give for `COc1ccccc1C1NC(=S)NC2=C1CCc1ccccc12` (stereo not given) here?
The Potency was active: 28.2 µM.

For `CC(NC(=O)OCc1ccccc1)c1nc2cccnc2n1C1CCCC1` (stereo not given), which Potency is on record?
Its Potency is “inactive”.

For `CC(=CC(=O)c1ccccc1)c1ccccc1`, which Potency is on record?
The Potency was “inactive”.

For `CCOc1ccc2c(n1)CCN(C(=O)c1ccco1)C2`, which Potency is on record?
The Potency was “inactive”.

How did the Potency turn out when `Cc1ccc(C)c(NC(=O)CN(C)C(=O)c2cccc(N3C(=O)CCC3=O)c2)c1` was run?
Its Potency is inconclusive: 89.1 µM [inhibitor, partial curve, poor fit].

`COc1ccccc1C(=O)Nc1ccc(NC(=O)c2ccco2)c(C)c1` was tested. Which Potency did it give?
The Potency was inconclusive: 4.47 µM [inhibitor, full curve, poor fit].

For `CCC(=O)N(C1CCOCC1)C1CCN(S(=O)(=O)c2cc(F)ccc2C)CC1`, which Potency is on record?
The Potency was “inactive”.

Which Potency does the source give for `CSC(=Nc1ccccc1)N=C(SCc1ccccc1)N(C)C` here?
Its Potency is inconclusive: 44.7 µM [inhibitor, partial curve, poor fit].

With `Cc1ccc(SCCNC(=O)c2nccnc2N)cc1` as the compound, how does the Potency read?
Its Potency is “inactive”.

With `CNS(=O)(=O)c1cc2c3c(cccc3c1)C(=O)NC2=O` as the compound, how does the Potency read?
The Potency was “inactive”.

Which Potency does the source give for `CN(C)c1ccc(-c2nc(NCCc3cnc[nH]3)c3ccccc3n2)cc1` here?
The Potency was “inactive”.

Which Potency does the source give for `Cc1nc(NC(=S)Nc2ccccc2)sc1C` here?
Its Potency is inconclusive: 1.26 µM [inhibitor, full curve, poor fit].

Which Potency does the source give for `CCC(C)Sc1cccc(-c2nc3cc(C)ccn3c2NCc2ccccc2)c1` (stereo not given) here?
The Potency was inconclusive: 89.1 µM [inhibitor, single point] and inconclusive: 63.1 µM [inhibitor, partial curve, poor fit].

`Cc1cc(C)c(NC(=S)N(C)C)cc1C` was tested. Which Potency did it give?
The Potency was inconclusive: 112 µM [inhibitor, single point].

How did the Potency turn out when `O=C(c1n[nH]c2ccccc12)N1CCOCC1` was run?
Its Potency is “inactive”.

For `Cc1ccc(C(=O)c2sc(Nc3ccc(Cl)cc3C)nc2N)cc1`, which Potency is on record?
The Potency was active: 28.2 µM.

Which Potency does the source give for `Fc1cccc(Cl)c1CNCCCSc1ncccn1` here?
The Potency was inconclusive: 17.8 µM [inhibitor, full curve, poor fit].

With `O=S(Cc1ccccc1)Cc1ccccc1` as the compound, how does the Potency read?
The Potency was “inactive”.

How did the Potency turn out when `CC1CCc2nc(NC(=O)Cc3ccc(Cl)cc3)sc2C1` (stereo not given) was run?
Its Potency is inconclusive: 44.7 µM [inhibitor, partial curve, poor fit].

Which Potency does the source give for `O=C1C(=O)N(CCO)C(c2cccc(F)c2)/C1=C(\O)c1ccc(Cl)cc1` (stereo not given) here?
Its Potency is inconclusive: 31.6 µM [inhibitor, partial curve, poor fit].

How did the Potency turn out when `CC(=O)N(C1=C(O)c2ccccc2C(=O)C1=O)C1CCCCC1` was run?
The Potency was inconclusive: 44.7 µM [inhibitor, partial curve, poor fit].

`COc1ccc(C2/C(=C(/O)c3ccc(C)cc3)C(=O)C(=O)N2c2ccccn2)cc1` (stereo not given) was tested. Which Potency did it give?
Its Potency is inconclusive: 12.6 µM [inhibitor, full curve, poor fit].

Which Potency does the source give for `O=C(Nc1ccc(-n2ccnc2P(=O)(O)c2ccccc2)cc1)c1ccccc1Br` here?
Its Potency is inconclusive: 0.562 µM [inhibitor, full curve, poor fit].

For `CC(C)OCc1ccccc1CNS(=O)(=O)c1ccc(F)cc1`, which Potency is on record?
The Potency was “inactive”.

With `COc1ccc(Nc2nc(NC(C)(C)C)nc(N3CCCC3)n2)c(OC)c1` as the compound, how does the Potency read?
Its Potency is inconclusive: 50.1 µM [inhibitor, partial curve, poor fit].

Which Potency does the source give for `Cc1cc(C)c(C)c(S(=O)(=O)N2CCN(c3ccc(O)cc3)CC2)c1C` here?
Its Potency is inconclusive: 44.7 µM [inhibitor, partial curve, poor fit].

With `COc1ccc(Cl)cc1C(=O)Nc1ccccc1N1CCN(C)CC1` as the compound, how does the Potency read?
The Potency was “inactive”.

`O=C(CCn1cnc2sc3c(c2c1=O)CCCC3)NC1CCS(=O)(=O)C1` (stereo not given) was tested. Which Potency did it give?
Its Potency is “inactive”.

For `COCC(C)n1c(=O)sc2ccccc2c1=O` (stereo not given), which Potency is on record?
Its Potency is inconclusive: 3.16 µM [inhibitor, full curve, poor fit].

How did the Potency turn out when `O=C1CC(c2ccccc2)N(C(=O)CNC(=O)c2ccc(Cn3ccnc3)o2)CCCCCN1` (stereo not given) was run?
Its Potency is “inactive”.

Which Potency does the source give for `COc1ccccc1C1CCN(C(=O)c2cccs2)CC1` here?
The Potency was “inactive”.

For `COc1ccc(Cl)cc1NC(=O)CN(C1CCCCC1)S(C)(=O)=O`, which Potency is on record?
The Potency was “inactive”.

With `COc1ccc(/C=N/NC(=O)CNC(=O)c2ccncc2)cc1OC` as the compound, how does the Potency read?
The Potency was inconclusive: 126 µM [inhibitor, single point].

Which Potency does the source give for `Cc1nc(-c2ccccc2)sc1C1(C)CC(c2ccc(C#N)cc2)=NO1` (stereo not given) here?
Its Potency is inconclusive: 31.6 µM [inhibitor, partial curve, poor fit].

`CC(C)Cn1c(SCC(=O)NCc2ccccc2Cl)nc2ncccc2c1=O` was tested. Which Potency did it give?
Its Potency is inconclusive: 89.1 µM [inhibitor, partial curve, poor fit].

`Cc1ccc(CCC(=O)N2CC[C@@](O)(C3CCOCC3)[C@H](C)C2)cc1` was tested. Which Potency did it give?
The Potency was “inactive”.

Which Potency does the source give for `CCCCCCn1cc(CN2CC(N3CCN(CCO)CC3)CS2(=O)=O)nn1` (stereo not given) here?
The Potency was inconclusive: 20 µM [inhibitor, full curve].

`CN1CCc2c(sc(N)c2C(N)=O)C1` was tested. Which Potency did it give?
Its Potency is “inactive”.

Which Potency does the source give for `O=[N+]([O-])c1ccc(OCCN2CCNCC2)cc1` here?
Its Potency is inconclusive: 8.91 µM [inhibitor, partial curve, poor fit].

How did the Potency turn out when `N#Cc1ccc(C2N=C(c3ccccc3)NO2)cc1` (stereo not given) was run?
The Potency was inconclusive: 44.7 µM [inhibitor, partial curve, poor fit].

For `COc1ccc(N(C(=O)c2cccnc2)S(=O)(=O)c2cccc([N+](=O)[O-])c2)cc1`, which Potency is on record?
The Potency was inconclusive: 79.4 µM [inhibitor, partial curve, poor fit].

For `Cc1ccc(C(=O)N2CCC3(CCCN(Cc4cccc(F)c4F)C3)C2)s1` (stereo not given), which Potency is on record?
Its Potency is inconclusive: 89.1 µM [inhibitor, partial curve, poor fit].

How did the Potency turn out when `CCCCN(CCCC)Cc1cc(=O)oc2ccccc12` was run?
Its Potency is inconclusive: 50.1 µM [inhibitor, partial curve, poor fit].

For `COCCSc1ccccc1C(=O)Nc1nnc(COC)s1`, which Potency is on record?
Its Potency is inconclusive: 35.5 µM [inhibitor, partial curve, poor fit].

`COc1ccc(C(=O)Cn2c(C)nc([N+](=O)[O-])c2Br)cc1` was tested. Which Potency did it give?
The Potency was inconclusive: 44.7 µM [inhibitor, partial curve, poor fit].

With `O=C(CCC[C@H]1NC[C@@H]2C[C@H]1CN(Cc1ccccc1)C2)N1CCN(c2ncccn2)CC1` as the compound, how does the Potency read?
The Potency was inconclusive: 3.16 µM [inhibitor, full curve, poor fit].

Which Potency does the source give for `CCn1cnnc1-c1nn(C)c2c1CNCC2` here?
The Potency was inconclusive: 4.47 µM [inhibitor, full curve, poor fit].

How did the Potency turn out when `COc1ccc(OC)c(NC(=O)C2CCN(Cc3cnn(-c4ccccc4)c3-n3cccc3)CC2)c1` was run?
Its Potency is “inactive”.

`COCCOc1ccc2c(n1)CCN(C(=O)COc1ccccc1)C2` was tested. Which Potency did it give?
Its Potency is “inactive”.

With `COc1ccc2c(c1)CCCO[C@]21O[C@H](CCO)C[C@H](O)[C@H]1O` as the compound, how does the Potency read?
Its Potency is inconclusive: 50.1 µM [inhibitor, single point].

Which Potency does the source give for `CN(C(=O)c1cccc(NC(=O)Cc2cccc([N+](=O)[O-])c2)c1)C1CCCC1` here?
The Potency was “inactive”.

`S=c1nc[nH]c2c1cnn2Cc1ccccc1` was tested. Which Potency did it give?
The Potency was inconclusive: 25.1 µM [inhibitor, single point].

Reference: PubChem BioAssay AID1671190 (National Center for Advancing Translational Sciences (NCATS), 2021)
